Residue numbers refer to the chain shown, from its start. Results are given in words; binding and its absence hold for the method and conditions named. Some binding calls cover weakened binding; strength is not graded here. Each block holds one binder with its values, some of them ahead of it.
Molecular target: Human beta2 (human) (UniProt P05107)
Assay: specificity ELISA on coated integrins, periplasmic extract

B1: 139-B2 (VHH)
VHH: EVQLVESGGGLVQTGGSLRLSCAASGSTFNINAWGWYRQAPGKQRELVAVISSSGSTDYSDAVKGRFTISTVNAGNTVYLEMNSLKPEDTAVYYCRAADSGPWRYWGQGSQVTVSS
- binding: binds

B2: 138-F2 (VHH)
VHH: EVQLVESGGGLVQAGGSLRLSCAPSSSAVSIVHIQWHRQAPGKQRELVASVNSRGTTNYADSVKGRAIISRDNAKNTVYLQMNSLKPEDTAVYYCYARTLQLGALRDYWGQGTQVTVSS
- binding: binds

B4: 138-A2 (VHH)
VHH: EVQLVESGGELVQAGGSLRLSCAASGSVSSINVMGWYRQAPGKQRELVATISSSGYTDYSDSAKGRFTISRDNKNTVHLQMNSLKPEDTAVYYCRASTLRTGWFTGWGQGTQVTVSS
- binding: binds

B5: 138-B2 (VHH)
VHH: B4 VHH with S25P, S60A
- binding: binds

B7: 152-F4 (VHH)
VHH: B4 VHH with E10G, G35A, S53T, F104L, T105M
- binding: binds

B8: 152-D4 (VHH)
VHH: B4 VHH with V2M
- binding: binds

B9: 152-F2 (VHH)
VHH: B4 VHH with Y56C
- binding: binds

B10: 152-C4 (VHH)
VHH: B4 VHH with E10G, A24T, G35A, S53T, F104L, T105M
- binding: binds

B11: 152-E1 (VHH)
VHH: B4 VHH with E10G, S30A, G35A, S54T, H78Y, V91I, F104L, T105M
- binding: binds

B13: 139-C2 (VHH)
VHH: EVQLVESGRGLVQAGGSLRLSCTVSGSTGSINAMGWYRQAPGKQRELVAIIYSSGRIDYADSVKGRFTISRDNAKNTVBLQMNSLKPDDTAAYYCNAANPNTGWQRPHRASWGQGTQVTVSS
- binding: binds

B15: 138-C2 (VHH)
VHH: B13 VHH with R9G, L11V, R56T, D58B, B79Y
- binding: binds

B17: 139-F10 (VHH)
VHH: EVQLVESGGGLVQAGGSLRLSCAASGSRLRFELMGWYRQAPGKPRDLVALITSSGSANYADSVKGRFTISRDNAKNTLYLQMNSLKPEDTGVYYCNAHTYTDNLWGQGTQVTVSS
- binding: binds

B20: 152-B10 (VHH)
VHH: B17 VHH with L29F, L33I, P87S
- binding: binds

B21: 139-D10 (VHH)
VHH: B17 VHH with V2M
- binding: binds

B23: 152-G9 (VHH)
VHH: B17 VHH with A14V, L29F
- binding: binds

B28: 152-H10 (VHH)
VHH: B17 VHH with L11V, Q13E, S25T, L29F, L33I, S53R, N73S
- binding: binds

B29: 138-A5 (VHH)
VHH: EVQLVESGGGLVQAGGSLRLSCAASGNTFSINAVGWYRQAPEKQRELVAIILSSGTTDYADSVKGRFTISRDNAKNIVYLQMNSLKPEDTAVYYCRVADREMGWAYWGQGTQVTVSS
- binding: binds

B31: 138-H2 (VHH)
VHH: EVQLVESGGGLVQAGGSQKLSCAASGSTLIYTMGWYRQALGKKRVFVASISRDGSTIYGDSVKGRFTISRDNAKNTAYLQMNSLKPEDTAVYVCKAEGWYQGYWGQGTQVTVSS
- binding: binds

B33: 139-H10 (VHH)
VHH: EVQLVESGGGLVQAGGSLRLSCAASASILSINTMDWFRRTPGKQRELVSTITRDGRTTYADSVKGRFTLSRDNTKNTVSLQMNSLKPEDTAVYYCLANVETTRGLTKNYWGQGIQVTVSS
- binding: binds

Continued, values first:

- binding: binds
B3: 235-E3 (VHH)
VHH: EVQLVESGGGLVQAGGSLRLSCTVSGSTGSINVMGWYRQAPGKQRELVAIIYSSGTLDYADSVKGRFTISRDNAKNTVYLQMNSLKPDDTAAYYCNAAMQDSAWLRPHRASWGQGTQVTVSS

- binding: binds
B6: 153-H4 (VHH)
VHH: B4 VHH with E10G, G35A, S54T, T105M

- binding: binds
B12: 153-G1 (VHH)
VHH: B13 VHH with R9G, B79Y, S84N, K86Q

- binding: binds
B14: 153-G1 (SEQ ID NO: 1350) (VHH)
VHH: B13 VHH with R9G, B79Y, S84N, K86Q

- binding: binds
B16: 153-E10 (VHH)
VHH: EVQLVESGGGLVQTGGSLRLSCAASGSIFMILAMGWYRQAPGKQRELVTTIIRDGKTYYSDSVKDRFTISRDNAKNTAYLQMNSLKPEDTAVYYCYTKVIVMGAGMDDNDFFGQGTQVTVSS

- binding: binds
B18: 236-B11 (VHH)
VHH: B17 VHH with L29F, S53R

- binding: binds
B19: 236-B5 (VHH)
VHH: B17 VHH with L29F, L33I, K43R, P44M, A57T

- binding: binds
B22: 248-G7 (VHH)
VHH: B17 VHH with G8R

- binding: binds
B24: 153-F9 (VHH)
VHH: B17 VHH with K86E

- binding: binds
B25: 153-C7 (VHH)
VHH: B17 VHH with E1K, L29F, D61E

- binding: binds
B26: 153-C9 (VHH)
VHH: B17 VHH with L29F

- binding: binds
B27: 236-D5 (VHH)
VHH: B17 VHH with Q13R, L29F, L33I, K43S, P44A, S53N, L78F

- binding: binds
B30: 153-A8 (VHH)
VHH: EVQLVESGGGLVQAGGSVRLSCAASGVIFRFVLMGWYRQAPGKQRELVAQITSSDATNYADSVKGRFTISRDNAKKTVDLQMNSLKPEDTAVYYCLLARGPDVYWGQGTQVTVSS

- binding: binds
B32: 248-H1 (VHH)
VHH: B31 VHH with S83N

Source: US20110294982A1 (Ablynx, published 2011)
